Measurements reported in US5248690A, “Method for treatment of neurodegenerative diseases” (R. J. Reynolds Tobacco Company, priority 1992, dated 1993).
At least one compound was matched to its structure with a doubt left.

Target: high affinity nicotinic receptors
Test: Inhibition of L-[3H]nicotine binding to mouse brain membrane preparations
Set-up: species or system Mice (DBA strain)
Settings: 10 nM L-[3H]nicotine, 2 hr at 4° C., mouse brain membranes, Ki calculated from IC50 by method of Cheng et al.
Protocol: Mice (DBA strain) were maintained on a 12 hour light/dark cycle and were allowed free access to water and food supplied by Wayne Lab Blox, Madison, Wis. Animals used in the present studies were 60 to 90 days of age and weighed 20 to 25 g. Brain membrane preparations were obtained from pooled brain tissue of both males and females.
Mice were killed by cervical dislocation. Brains were removed and placed on an ice-cold platform. […] Protein was determined by the method of Lowry, et al., J. Biol. Chem., Vol. 193, pp. 265-275 (1951), using bovine serum albumin as the standard.
The binding of L-[^3 H]nicotine was measured using a modification of the method of Romano, et al., Science, Vol. 210, pp. 647-650 (1980) as described previously by Marks, et al., Mol. pharmacol., Vol. 30, pp. 427-436 (1986). The binding of L-[^3 H]nicotine was measured using a 2 hr. incubation at 4° C. […] Nonspecific binding was determined by inclusion of 10 μM nonradioactive nicotine in the incubations. The inhibition of L-[^3 H]nicotine binding by test compounds was determined by including one of eight different concentrations of the test compound in the incubation. […] Inhibition constants (Ki values) were calculated from the IC50 values using the method of Cheng, et al., Biochem. Pharmacol., Vol. 22, pp. 3099-3108 (1973). […]

Structure (SMILES)	Ki
Clc1ccc(CN2CCCC2)cc1 [1-(p-chlorophenyl)methylpyrrolidine, 1-(p-chlorophenyl) methylpyrrolidine]	6.4 µM
c1ccc(CCCN2CCCC2)cc1 [1-phenylpropylpyrrolidine]	4.5 µM
